PubChem BioAssay AID1224830 | NIAID, 2016
Aim: 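Host factors that control LPS-induced TNF expression in human macrophages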 (primary screen). Cells: human THP-1 monocytic leukaemia cells, TNF dual-luciferase reporter clone, PMA-differentiated to macrophage-like cells. Reagents: siRNA pool against human genes, 50 nM. Timing: LPS for 4 h, given about 3 days after siRNA transfection. Treatment: bacterial LPS (TLR4 ligand), 10 ng/ml. Measured: 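TNF firefly reporter luminescence divided by renilla, normalised to the plate median, then turned into a robust z-score for each replicate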. Reading the numbers: TNF reporter robust z-score: higher = stronger TNF reporter response to LPS. Call rule: 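Each well counts as active if its z-score is over 2.8 or under -1.5; controls are left without a call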.
Here is an unselected part of about 18,000 reagents. About 2,900 of all reagents (16%) count as active. 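Calls are made per well; low scores hint the gene aids the LPS response, high scores that it dampens it.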 A number with no mark means an inactive call. Repeated entries: four replicate wells of each siRNA pool.

What is on record for SNX17 (sorting nexin 17)?
TNF reporter robust z-score: -1

Which result is listed for SNX17 (sorting nexin 17)?
TNF reporter robust z-score: -0.85

What did the screen give for SNX17 (sorting nexin 17)?
TNF reporter robust z-score: -1.29

What is on record for SNX17 (sorting nexin 17)?
TNF reporter robust z-score: -0.59

What is on record for ADAMTS10 (ADAM metallopeptidase with thrombospondin type 1 motif 10)?
TNF reporter robust z-score: -0.62

With ADAMTS10 (ADAM metallopeptidase with thrombospondin type 1 motif 10), how do the results read?
TNF reporter robust z-score: -0.58

What did the screen give for ADAMTS10 (ADAM metallopeptidase with thrombospondin type 1 motif 10)?
TNF reporter robust z-score: -1.15

For ADAMTS10 (ADAM metallopeptidase with thrombospondin type 1 motif 10), how do the results read?
TNF reporter robust z-score: 1.64

Which result is listed for ELOC (elongin C)?
TNF reporter robust z-score: -0.92

How did the screen score ELOC (elongin C)?
TNF reporter robust z-score: 0.03

Which result is listed for ELOC (elongin C)?
TNF reporter robust z-score: 0.67

What is on record for ELOC (elongin C)?
TNF reporter robust z-score: 0

For SLC29A4, how do the results read?
TNF reporter robust z-score: -0.05

For SLC29A4, what does the deposit list?
TNF reporter robust z-score: 1.15

With SLC29A4, what was measured?
TNF reporter robust z-score: 0.16

Which result is listed for SLC29A4?
TNF reporter robust z-score: -0.41

With SMC1B (structural maintenance of chromosomes 1B), what was measured?
TNF reporter robust z-score: 1.41

What is on record for SMC1B (structural maintenance of chromosomes 1B)?
TNF reporter robust z-score: -0.1

With SMC1B (structural maintenance of chromosomes 1B), what does the deposit list?
TNF reporter robust z-score: 0.86

With SMC1B (structural maintenance of chromosomes 1B), what was measured?
TNF reporter robust z-score: -0.64

For PES1 (pescadillo ribosomal biogenesis factor 1), what was measured?
TNF reporter robust z-score: 0

Which result is listed for PES1 (pescadillo ribosomal biogenesis factor 1)?
TNF reporter robust z-score: 1.15

For PES1 (pescadillo ribosomal biogenesis factor 1), what was measured?
TNF reporter robust z-score: 3.28 (active)

For PES1 (pescadillo ribosomal biogenesis factor 1), what was measured?
TNF reporter robust z-score: 1.05

For IGSF9 (immunoglobulin superfamily member 9), what was measured?
TNF reporter robust z-score: -0.45

With IGSF9 (immunoglobulin superfamily member 9), what does the deposit list?
TNF reporter robust z-score: -0.24

Which result is listed for IGSF9 (immunoglobulin superfamily member 9)?
TNF reporter robust z-score: -0.51

For IGSF9 (immunoglobulin superfamily member 9), what was measured?
TNF reporter robust z-score: 0.24

With GAGE7 (G antigen 7), what does the deposit list?
TNF reporter robust z-score: 2.24

With GAGE7 (G antigen 7), what does the deposit list?
TNF reporter robust z-score: 1.24

With GAGE7 (G antigen 7), how do the results read?
TNF reporter robust z-score: 1.72

What is on record for GAGE7 (G antigen 7)?
TNF reporter robust z-score: 2.31

What did the screen give for DEPTOR (DEP domain containing MTOR interacting protein)?
TNF reporter robust z-score: 0.21

What is on record for DEPTOR (DEP domain containing MTOR interacting protein)?
TNF reporter robust z-score: 0.83

With DEPTOR (DEP domain containing MTOR interacting protein), what was measured?
TNF reporter robust z-score: 0.22

With DEPTOR (DEP domain containing MTOR interacting protein), how do the results read?
TNF reporter robust z-score: 1.01

What did the screen give for HBZ (hemoglobin subunit zeta)?
TNF reporter robust z-score: -0.67

With HBZ (hemoglobin subunit zeta), what does the deposit list?
TNF reporter robust z-score: 0.38

For HBZ (hemoglobin subunit zeta), how do the results read?
TNF reporter robust z-score: -0.26

For HBZ (hemoglobin subunit zeta), how do the results read?
TNF reporter robust z-score: 1.36

For SND1-IT1 (SND1 intronic transcript 1), how do the results read?
TNF reporter robust z-score: -0.44

For SND1-IT1 (SND1 intronic transcript 1), what was measured?
TNF reporter robust z-score: -0.13

How did the screen score SND1-IT1 (SND1 intronic transcript 1)?
TNF reporter robust z-score: -0.23

What did the screen give for SND1-IT1 (SND1 intronic transcript 1)?
TNF reporter robust z-score: -0.37

What did the screen give for LIMK2 (LIM domain kinase 2)?
TNF reporter robust z-score: -0.27

How did the screen score LIMK2 (LIM domain kinase 2)?
TNF reporter robust z-score: -0.73

With LIMK2 (LIM domain kinase 2), how do the results read?
TNF reporter robust z-score: -0.59

How did the screen score LIMK2 (LIM domain kinase 2)?
TNF reporter robust z-score: 0.59
